Source: PubChem BioAssay AID652243 (Drosophila RNAi Screening Center, 2013)

Purpose: 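Knock-downs that decrease or increase androgen receptor reporter signal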 (primary screen)
Cell system: Drosophila S2R+ cells
Reagent: long dsRNA against Drosophila genes
Time to read-out: 72 h (48 h, then 24 h hormone)
Treatment: synthetic androgen R1881 at 10 nM for 24 h
Measured: 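Firefly light from an androgen-responsive reporter and Renilla control light per well, raw and unnormalised, for each of two replicates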
Direction: firefly reporter light: higher = more light from androgen-responsive reporter; Renilla control light: higher = more constitutive control signal (cell number, transfection)
Rule for the call: 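Hit when the log firefly-to-Renilla ratio dropped or increased by a fixed fold versus the mean of GFP or LacZ controls across duplicate plates; lowering cut given as 1.5 and as 3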
Calls: active = hit: reporter lowered or raised; inactive = no hit
In all, the deposit lists about 24,000 reagents; shown is an unselected part of those that have a named target and a result. Of all reagents, 246 (1%) are marked active. 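Plates not normalised; calls are printed but the firefly/Renilla ratio behind them is not deposited; fold cut for lowering reported inconsistently.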 The raw values are shown without normalisation. Names joined by + are all predicted targets of the reagent. No sequences are given here. Not stated in the record: the amount of reagent.

Target gene	dsRNA	firefly reporter light, replicate 1	firefly reporter light, replicate 2	Renilla control light, replicate 1	Renilla control light, replicate 2	Call
mod(mdg4) (modifier of mdg4)	DRSC13474					inactive
mod(mdg4) (modifier of mdg4)	DRSC13475					inactive
mod(mdg4) (modifier of mdg4)	DRSC13478	80337	1.18e5	1.72e5	1.55e5	inactive
mod(mdg4) (modifier of mdg4)	DRSC15042	2.72e5	3.03e5	2.89e6	3.11e6	inactive
mod(mdg4) (modifier of mdg4)	DRSC17000	69352	94193	7.85e5	8.70e5	inactive
pzg (putzig)	DRSC11848	89501	50407	1.59e5	2.15e5	inactive
CG12118	DRSC17813	1.09e5	1.04e5	6.77e5	6.52e5	inactive
cola + swif	DRSC06826	5.07e5	3.11e5	2.73e6	1.84e6	inactive
cola + swif	DRSC21965	4.32e5	3.96e5	8.35e5	1.18e6	inactive
CG4970	DRSC02796	3.22e5	2.71e5	2.14e6	1.98e6	inactive
qkr58E-2 (quaking related 58E-2)	DRSC04710	1.09e5	1.30e5	1.68e6	1.62e6	inactive
qkr58E-2 (quaking related 58E-2)	DRSC25296	4.95e5	3.38e5	5.25e5	3.80e5	inactive
GstD6 (Glutathione S transferase D6)	DRSC16687	1.42e5	1.47e5	2.36e6	2.29e6	inactive
GstD6 (Glutathione S transferase D6)	DRSC24208	3.79e5	2.94e5	5.34e5	3.47e5	inactive
Ptpa (Phosphotyrosyl phosphatase activator)	DRSC00776	8.63e5	8.10e5	2.57e6	1.81e6	inactive
Ptpa (Phosphotyrosyl phosphatase activator)	DRSC28747	5.52e5	6.31e5	1.23e6	1.21e6	inactive
Mrm2 (Mitochondrial rRNA methyltransferase 2)	DRSC14310	2.90e5	3.56e5	3.63e6	3.90e6	inactive
Mrm2 (Mitochondrial rRNA methyltransferase 2)	DRSC27849	1.33e6	8.69e5	3.63e6	1.73e6	inactive
CG11262	DRSC09831	3.34e5	1.36e5	2.28e6	1.26e6	inactive
CG8249	DRSC07125	46376	56354	1.28e6	1.28e6	inactive
E(spl)mgamma-HLH (Enhancer of split mgamma, helix-loop-helix)	DRSC16699	1.81e5	1.76e5	2.14e6	1.99e6	inactive
E(spl)mgamma-HLH (Enhancer of split mgamma, helix-loop-helix)	DRSC25532	3.03e5	3.32e5	4.15e5	4.00e5	inactive
Cyp313a3 (Cytochrome P450 313a3)	DRSC16626	1.26e5	1.87e5	2.90e6	3.48e6	inactive
CG3769	DRSC02723	70110	97851	1.16e6	1.03e6	inactive
Bbd (Bombardier)	DRSC06709	73657	97738	1.30e6	1.16e6	inactive
CG15160	DRSC02461	1.77e5	1.93e5	2.19e6	2.37e6	inactive
CG15160	DRSC27129	3.29e5	2.65e5	5.98e5	5.16e5	inactive
Flacc (Fl(2)d-associated complex component)	DRSC20040	88767	65817	9.71e5	1.02e6	inactive
Flacc (Fl(2)d-associated complex component)	DRSC25501	6.05e5	5.76e5	1.11e6	8.73e5	inactive
JMJD5 (Jumonji domain containing 5)	DRSC08372	83415	1.45e5	1.21e6	1.95e6	inactive
JMJD5 (Jumonji domain containing 5)	DRSC25820	5.04e5	5.97e5	1.15e6	8.70e5	inactive
Gpat4 (Glycerol-3-phosphate acyltransferase 4)	DRSC04345	9.00e5	5.16e5	1.01e6	1.06e6	inactive
CG31784	DRSC01574	1.88e5	2.17e5	6.48e5	6.65e5	inactive
CG3704	DRSC18174	2.71e5	3.25e5	6.34e6	4.40e6	inactive
CG3704	DRSC18645	3.07e5	2.80e5	6.22e6	3.56e6	inactive
CG3704	DRSC28218	5.96e5	8.78e5	1.68e6	2.44e6	inactive
NANS (N-acetylneuraminic acid synthase)	DRSC15743	1.26e5	77291	2.37e6	1.47e6	inactive
NANS (N-acetylneuraminic acid synthase)	DRSC27626	2.86e5	2.33e5	4.97e5	8.54e5	inactive
CG16837	DRSC04283	3.68e5	4.58e5	1.54e6	1.90e6	inactive
CG16837	DRSC26178	3.73e5	3.19e5	3.72e5	5.60e5	inactive
CG16700	DRSC19755	2.46e5	2.98e5	3.06e6	3.13e6	inactive
Ugt35D1 (UDP-glycosyltransferase family 35 member D1)	DRSC15107	1.98e5	1.81e5	2.27e6	2.61e6	inactive
CG43861	DRSC02170	1.41e5	1.62e5	1.42e6	1.34e6	inactive
CG43861	DRSC02308	1.03e5	1.80e5	1.01e6	1.21e6	inactive
Cdc23 (Cell division cycle 23)	DRSC02708	8.19e5	1.10e6	1.25e6	2.11e6	inactive
CG7786	DRSC07045	84093	1.24e5	2.09e6	2.09e6	inactive
CG7786	DRSC26604	3.27e5	3.10e5	7.72e5	7.38e5	inactive
Rbp1-like	DRSC19828	5.71e5	5.51e5	3.22e6	4.16e6	inactive
Rbp1-like	DRSC21938	4.60e5	5.06e5	1.46e6	1.26e6	inactive
Rbp1-like	DRSC22075	5.72e5	5.02e5	3.53e5	3.96e5	inactive
Rbp1-like	DRSC25442	9.36e5	6.20e5	6.96e5	7.57e5	inactive
Rbp1-like	DRSC26949	3.85e5	3.19e5	6.57e5	3.38e5	inactive
CG5382	DRSC15786	93837	86329	5.66e5	5.52e5	inactive
Ocrl (Oculocerebrorenal syndrome of Lowe)	DRSC18576	87023	1.82e5	1.01e6	1.10e6	active
Ocrl (Oculocerebrorenal syndrome of Lowe)	DRSC36745					inactive
Ocrl (Oculocerebrorenal syndrome of Lowe)	DRSC36746					inactive
RpL6 (Ribosomal protein L6)	DRSC14323	1.78e5	1.74e5	1.30e6	2.08e6	inactive
RpL6 (Ribosomal protein L6)	DRSC22384	2.14e5	3.31e5	1.40e5	1.42e5	inactive
RpL6 (Ribosomal protein L6)	DRSC25982	1.67e5	2.53e5	4.34e5	3.07e5	inactive

Part of the list above, reformatted.
Target gene | dsRNA | firefly reporter light, replicate 1 | firefly reporter light, replicate 2 | Renilla control light, replicate 1 | Renilla control light, replicate 2 | Call
GstD6 (Glutathione S transferase D6) | DRSC24208 | 3.79e5 | 2.94e5 | 5.34e5 | 3.47e5 | inactive
Ptpa (Phosphotyrosyl phosphatase activator) | DRSC00776 | 8.63e5 | 8.10e5 | 2.57e6 | 1.81e6 | inactive
Ptpa (Phosphotyrosyl phosphatase activator) | DRSC28747 | 5.52e5 | 6.31e5 | 1.23e6 | 1.21e6 | inactive
Mrm2 (Mitochondrial rRNA methyltransferase 2) | DRSC14310 | 2.90e5 | 3.56e5 | 3.63e6 | 3.90e6 | inactive
Mrm2 (Mitochondrial rRNA methyltransferase 2) | DRSC27849 | 1.33e6 | 8.69e5 | 3.63e6 | 1.73e6 | inactive
CG11262 | DRSC09831 | 3.34e5 | 1.36e5 | 2.28e6 | 1.26e6 | inactive
CG8249 | DRSC07125 | 46376 | 56354 | 1.28e6 | 1.28e6 | inactive
E(spl)mgamma-HLH (Enhancer of split mgamma, helix-loop-helix) | DRSC16699 | 1.81e5 | 1.76e5 | 2.14e6 | 1.99e6 | inactive
E(spl)mgamma-HLH (Enhancer of split mgamma, helix-loop-helix) | DRSC25532 | 3.03e5 | 3.32e5 | 4.15e5 | 4.00e5 | inactive
